Data source: PubChem BioAssay AID504793 (Drosophila RNAi Screening Center, 2011)

Purpose: 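Whole-genome screen for parts of the DNA damage checkpoint at G2/M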 (primary screen)
Cells: Drosophila S2R+ cells
Reagent: long dsRNA against Drosophila genes, about 0.25 µg dsRNA per well
Duration: 4 days of dsRNA, then 4 hours of drug before read-out
Conditions: doxorubicin 0.5 µM for 4 hours to cause double-strand breaks, in cells also given a low, harmless dose of dsRNA against nbs to sensitise the assay
Measurement: 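Per-well count of mitotic cells stained for phospho-histone H3 after doxorubicin exposure, used as mitotic index; counts are raw and not normalised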
Direction: mitotic cells: higher = more cells in mitosis, weaker G2 arrest
Rule for the call: 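a call needs confirmation in secondary tests, with other dsRNAs and a check of mitotic timing without damage, not just a high primary count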
Calls: active = confirmed in follow-up tests; inactive = not confirmed
In all, the deposit lists about 23,000 reagents; this is an unselected part of those that have a named target and a result. Over the whole deposit, 62 (0.27%) are marked active. 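Calls come from follow-up tests whose scores are not deposited, so confirmed genes may have low counts here; counts are not normalised per plate.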 Raw values are not corrected between plates. A plus sign joins genes that one reagent is predicted to hit.

target | amplicon | mitotic cells, replicate 1 | mitotic cells, replicate 2 | call
CtsF (Cathepsin F) | DRSC12056 | 8 | – | inactive
CtsF (Cathepsin F) | DRSC12195 | 3 | – | inactive
CtsF (Cathepsin F) | DRSC12196 | 4 | – | inactive
Mgat2 | DRSC16347 | 2 | – | inactive
Mgat2 | DRSC29105 | 6 | – | inactive
Psf1 (Partner of Sld Five 1) | DRSC08638 | 4 | 11 | inactive
Psf1 (Partner of Sld Five 1) | DRSC24486 | 4 | – | inactive
CG33233 | DRSC08239 | 4 | – | inactive
Polr3E (RNA polymerase III subunit E) | DRSC11880 | 4 | – | inactive
Polr3E (RNA polymerase III subunit E) | DRSC23914 | 1 | – | inactive
CG34429 | DRSC10120 | 2 | – | inactive
CG5188 | DRSC02826 | 5 | – | inactive
Npc2d (Niemann-Pick type C-2d) | DRSC14551 | 7 | – | inactive
Npc2d (Niemann-Pick type C-2d) | DRSC28011 | 6 | – | inactive
CG10984 | DRSC09817 | 9 | – | inactive
CG10984 | DRSC28387 | 12 | – | inactive
Sos (Son of sevenless) | DRSC03439 | 8 | – | inactive
Sos (Son of sevenless) | DRSC23624 | 9 | – | inactive
Sos (Son of sevenless) | DRSC39141 | 6 | – | inactive
CG7309 | DRSC03045 | 3 | – | inactive
CG7309 | DRSC27252 | 11 | – | inactive
Rpn2 (Regulatory particle non-ATPase 2) | DRSC16839 | 32 | – | inactive
CG5861 | DRSC02907 | 3 | – | inactive
CG10591 | DRSC09748 | 7 | – | inactive
CG10591 | DRSC27468 | 6 | – | inactive
nej (nejire) | DRSC18006 | 11 | – | inactive
nej (nejire) | DRSC18801 | 10 | – | inactive
nej (nejire) | DRSC25087 | 10 | – | inactive
nej (nejire) | DRSC26774 | 7 | – | inactive
Pex19 (Peroxin 19) | DRSC02839 | 4 | – | inactive
Dbp21E2 (DEAD box protein 21E2) | DRSC00616 | 4 | – | inactive
Dbp21E2 (DEAD box protein 21E2) | DRSC28425 | 8 | – | inactive
DNAlig4 (DNA ligase 4) | DRSC19436 | 9 | – | inactive
Muc68D (Mucin 68D) | DRSC10569 | 5 | – | inactive
crm (cramped) | DRSC18754 | 11 | – | inactive
crm (cramped) | DRSC26508 | 4 | – | inactive
crm (cramped) | DRSC39136 | 7 | – | inactive
CG18765 | DRSC15392 | 6 | – | inactive
CG6659 | DRSC20003 | 5 | – | inactive
CG3776 | DRSC04417 | 11 | – | inactive
insc (inscuteable) | DRSC04695 | 7 | – | inactive
mei-S332 (meiotic from via Salaria 332) | DRSC04704 | 6 | – | inactive
CG42564 | DRSC12518 | 6 | – | inactive
scpr-B (SCP-containing protein B) | DRSC15200 | 6 | – | inactive
wwk (white walker) | DRSC01941 | 3 | – | inactive
Pdxk (Pyridoxal kinase) | DRSC10419 | 8 | – | inactive
Obp50e (Odorant-binding protein 50e) | DRSC06434 | 5 | – | inactive
CG7173 | DRSC23252 | 9 | – | inactive
CG7173 | DRSC29453 | 9 | – | inactive
CG31683 + CG18858 | DRSC02703 | 4 | – | inactive
FMRFa (FMRFamide) | DRSC07428 | 5 | – | inactive
CG32302 | DRSC08340 | 4 | – | inactive
fon (fondue) | DRSC02507 | 2 | – | inactive
CG1273 | DRSC08291 | 3 | – | inactive
CG11470 | DRSC14313 | 12 | – | inactive
CG13692 | DRSC00361 | 7 | – | inactive
CG13692 | DRSC28585 | 6 | – | inactive
tj (traffic jam) | DRSC02011 | 4 | – | inactive
tj (traffic jam) | DRSC28417 | 12 | – | inactive
Rab9Db + Rab9D + Rab9Fa + 1 more | DRSC17662 | 5 | – | inactive
CG1371 | DRSC06409 | 5 | – | inactive
tous (testes of unusual size) | DRSC04464 | 4 | – | inactive
CG11291 | DRSC04097 | 6 | – | inactive
CG10031 | DRSC00286 | 5 | – | inactive
CG15631 | DRSC00466 | 8 | – | inactive
Drep4 (DNA fragmentation factor-related protein 4) | DRSC03408 | 5 | – | inactive
CG14644 | DRSC12230 | 1 | – | inactive
cnk (connector enhancer of ksr) | DRSC07595 | 7 | – | inactive
CG14096 | DRSC26975 | 3 | – | inactive
Cyt-c-d (Cytochrome c distal) | DRSC03309 | 8 | – | inactive
Cyt-c-d (Cytochrome c distal) | DRSC30051 | 7 | – | inactive
sd (scalloped) | DRSC20370 | 19 | – | inactive
sd (scalloped) | DRSC37640 | 11 | – | inactive
CG33140 | DRSC06030 | 8 | – | inactive
CG33140 | DRSC26717 | 5 | – | inactive
CG42284 | DRSC22094 | 11 | – | inactive
CG42284 | DRSC22342 | 7 | – | inactive
Drep1 (DNA fragmentation factor-related protein 1) | DRSC07527 | 7 | – | inactive
PrBP (Prenyl-binding protein) | DRSC03189 | 4 | – | inactive
PrBP (Prenyl-binding protein) | DRSC25862 | 5 | – | inactive
IntS8 (Integrator 8) | DRSC07417 | 5 | – | inactive
CR15280 (pseudo) | DRSC01953 | 7 | – | inactive
CR15280 (pseudo) | DRSC24110 | 11 | – | inactive
Madm (MLF1-adaptor molecule) | DRSC12129 | 7 | – | inactive
Madm (MLF1-adaptor molecule) | DRSC25999 | 2 | – | inactive
Orc2 (Origin recognition complex subunit 2) | DRSC16776 | 5 | – | inactive
Nipsnap | DRSC20169 | 3 | – | inactive
fs(1)M3 (female sterile (1) M3) | DRSC18381 | 3 | – | inactive
fs(1)M3 (female sterile (1) M3) | DRSC29155 | 5 | – | inactive
CG43901 | DRSC19397 | 11 | – | inactive
CG43901 | DRSC27031 | 5 | – | inactive
Es2 | DRSC18663 | 7 | – | inactive
Es2 | DRSC27829 | 11 | – | inactive
CG10347 | DRSC19352 | 6 | – | inactive
CG13858 (retired record) | DRSC14708 | 9 | – | inactive
CG13858 (retired record) | DRSC14709 | 12 | – | inactive
CG13858 (retired record) | DRSC14710 | 1 | – | inactive
CG13858 (retired record) | DRSC14711 | 9 | – | inactive
CG5043 | DRSC02805 | 4 | – | inactive
CG5043 | DRSC25720 | 14 | – | inactive
CG7886 | DRSC16333 | 5 | – | inactive
Rtel1 (Regulator of telomere elongation helicase 1) | DRSC18343 | 9 | – | inactive
Rtel1 (Regulator of telomere elongation helicase 1) | DRSC26293 | 5 | – | inactive
CG6497 | DRSC10654 | 4 | – | inactive
CG6497 | DRSC21469 | 10 | – | inactive
CG6497 | DRSC26253 | 6 | – | inactive
sinu (sinuous) | DRSC09752 | 4 | – | inactive
reb (rebuf) | DRSC06308 | 7 | – | inactive
Arl1 (ADP ribosylation factor-like 1) | DRSC09667 | 6 | – | inactive
CG31279 | DRSC13158 | 5 | – | inactive

Taken from above.
Entry for CG33140 [DRSC26717] under “mitotic cells, replicate 1”: 5
CG13858 (retired record) [DRSC14709], mitotic cells, replicate 1 → 12
Value of CG33233 [DRSC08239] in “call”: inactive
CG10591 [DRSC09748], call = inactive
Under “call”, CG42564 [DRSC12518] has inactive
CG43901 [DRSC27031], mitotic cells, replicate 1 = 5
